Assay results from PMC10470592.
Results are given in words; binding and its absence hold for the method and conditions named. Binding seen in cells or lysates may run through a third protein. Some entries that bind do so weakly or less than the wild type. Where a sequence is shown, tags or fusion partners need not be part of it.

Chains of the proteins cited; added tags and fusions are not shown.
UniProt Q86WV6: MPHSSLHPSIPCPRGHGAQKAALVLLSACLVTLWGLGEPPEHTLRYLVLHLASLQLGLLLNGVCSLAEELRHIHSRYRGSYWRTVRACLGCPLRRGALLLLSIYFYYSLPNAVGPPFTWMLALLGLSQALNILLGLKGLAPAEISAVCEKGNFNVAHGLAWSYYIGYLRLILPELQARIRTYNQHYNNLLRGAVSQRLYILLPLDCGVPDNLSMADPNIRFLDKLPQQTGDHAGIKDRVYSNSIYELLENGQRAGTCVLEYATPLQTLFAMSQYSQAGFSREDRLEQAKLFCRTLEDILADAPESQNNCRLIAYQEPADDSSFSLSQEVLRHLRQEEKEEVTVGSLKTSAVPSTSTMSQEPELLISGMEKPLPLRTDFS

Assays:
Assay in all cases: co-IP; 293T cells co-transfected with HA-tagged SHIP1 constructs and Flag-tagged partners; IP using anti-Flag beads and immunoblot with anti-HA (Fig. 3C, 5A; also Fig. 3H, 3I, S3A, S5A); Flag-IRF3 with HA-SHIP1 also in NDP52 KO 293T cells, where the interaction was reduced (Fig. 5J)
[1] = target: T1, Flag-tagged NDP52 (CALCOCO2) (not stated (human or mouse cDNA cloned)) (UniProt Q13137)
T1 sequence: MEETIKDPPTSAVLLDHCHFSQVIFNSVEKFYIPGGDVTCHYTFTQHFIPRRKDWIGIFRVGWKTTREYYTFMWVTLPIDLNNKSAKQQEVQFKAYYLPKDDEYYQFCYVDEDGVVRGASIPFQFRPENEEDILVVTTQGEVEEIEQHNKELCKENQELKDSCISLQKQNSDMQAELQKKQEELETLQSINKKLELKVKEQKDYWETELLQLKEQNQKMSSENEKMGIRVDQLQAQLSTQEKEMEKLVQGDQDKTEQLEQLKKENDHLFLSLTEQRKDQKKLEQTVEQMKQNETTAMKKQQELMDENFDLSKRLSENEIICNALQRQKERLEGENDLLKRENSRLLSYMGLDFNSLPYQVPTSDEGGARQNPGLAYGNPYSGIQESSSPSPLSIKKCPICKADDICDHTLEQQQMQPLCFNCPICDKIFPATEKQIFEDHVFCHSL

[2] = target: stimulator of interferon genes (STING) (UniProt Q86WV6)
[3] = target: T2, Flag-tagged neighbor of BRCA1 (NBR1) (UniProt Q14596)
T2 sequence: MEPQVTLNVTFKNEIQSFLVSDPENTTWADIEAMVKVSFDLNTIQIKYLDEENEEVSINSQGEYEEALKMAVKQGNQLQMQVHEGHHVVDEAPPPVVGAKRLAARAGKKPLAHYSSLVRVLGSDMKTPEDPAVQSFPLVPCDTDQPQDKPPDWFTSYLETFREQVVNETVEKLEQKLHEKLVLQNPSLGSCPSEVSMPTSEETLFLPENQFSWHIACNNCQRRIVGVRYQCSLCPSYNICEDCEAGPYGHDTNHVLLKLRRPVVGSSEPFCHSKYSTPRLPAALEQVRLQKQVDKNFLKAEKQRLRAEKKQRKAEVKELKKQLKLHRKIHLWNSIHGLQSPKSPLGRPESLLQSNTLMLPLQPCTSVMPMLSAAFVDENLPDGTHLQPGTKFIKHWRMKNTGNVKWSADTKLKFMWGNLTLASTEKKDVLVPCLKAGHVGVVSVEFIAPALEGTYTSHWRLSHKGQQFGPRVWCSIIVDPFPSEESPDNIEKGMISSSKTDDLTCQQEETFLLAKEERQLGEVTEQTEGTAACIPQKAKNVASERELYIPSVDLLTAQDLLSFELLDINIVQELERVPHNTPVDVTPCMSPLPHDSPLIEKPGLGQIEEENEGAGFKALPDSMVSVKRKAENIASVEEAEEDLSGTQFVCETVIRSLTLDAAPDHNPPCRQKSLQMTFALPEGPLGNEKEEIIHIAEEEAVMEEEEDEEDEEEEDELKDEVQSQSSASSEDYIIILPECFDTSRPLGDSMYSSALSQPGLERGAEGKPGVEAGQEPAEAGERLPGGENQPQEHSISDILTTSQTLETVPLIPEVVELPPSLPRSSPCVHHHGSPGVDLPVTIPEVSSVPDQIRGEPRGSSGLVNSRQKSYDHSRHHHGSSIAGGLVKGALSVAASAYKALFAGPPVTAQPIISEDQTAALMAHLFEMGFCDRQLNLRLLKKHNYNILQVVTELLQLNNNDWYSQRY

[4] = target: T3, melanoma differentiation-associated protein 5 (MDA5) (UniProt Q9BYX4)
T3 sequence: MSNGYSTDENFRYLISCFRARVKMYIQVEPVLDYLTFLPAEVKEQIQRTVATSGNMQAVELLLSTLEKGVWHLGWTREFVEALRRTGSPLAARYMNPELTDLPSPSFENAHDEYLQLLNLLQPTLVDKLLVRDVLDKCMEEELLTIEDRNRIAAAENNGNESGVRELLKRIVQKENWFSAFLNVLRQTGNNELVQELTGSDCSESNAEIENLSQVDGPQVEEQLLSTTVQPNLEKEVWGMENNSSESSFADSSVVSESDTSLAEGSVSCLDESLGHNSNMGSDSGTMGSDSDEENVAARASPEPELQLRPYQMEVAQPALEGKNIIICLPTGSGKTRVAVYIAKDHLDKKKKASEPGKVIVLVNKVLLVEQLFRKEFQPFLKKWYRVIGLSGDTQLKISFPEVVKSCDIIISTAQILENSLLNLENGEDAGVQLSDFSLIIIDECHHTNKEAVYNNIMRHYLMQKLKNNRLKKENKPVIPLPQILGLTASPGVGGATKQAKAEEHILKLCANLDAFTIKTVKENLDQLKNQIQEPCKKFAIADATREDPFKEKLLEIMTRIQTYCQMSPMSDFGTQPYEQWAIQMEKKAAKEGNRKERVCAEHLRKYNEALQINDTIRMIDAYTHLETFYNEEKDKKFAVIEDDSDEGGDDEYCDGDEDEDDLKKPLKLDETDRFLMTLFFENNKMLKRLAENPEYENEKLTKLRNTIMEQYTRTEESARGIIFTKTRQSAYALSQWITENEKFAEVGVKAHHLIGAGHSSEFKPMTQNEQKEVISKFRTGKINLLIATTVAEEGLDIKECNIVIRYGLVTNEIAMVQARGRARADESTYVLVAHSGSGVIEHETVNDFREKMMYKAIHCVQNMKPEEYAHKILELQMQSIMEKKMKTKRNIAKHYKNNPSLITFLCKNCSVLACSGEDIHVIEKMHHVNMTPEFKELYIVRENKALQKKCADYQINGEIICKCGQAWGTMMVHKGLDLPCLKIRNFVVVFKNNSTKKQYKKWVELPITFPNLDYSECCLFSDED

- binding [1]: binds
- binding [2]: no binding
- binding [3]: no binding
- binding [4]: no binding
B1: HA-tagged SHIP1 (Src homology 2 containing inositol phosphatase 1), full length (protein, UniProt Q92835 1-1189)
chain: MVPCWNHGNITRSKAEELLSRTGKDGSFLVRASESISRAYALCVLYRNCVYTYRILPNEDDKFTVQASEGVSMRFFTKLDQLIEFYKKENMGLVTHLQYPVPLEEEDTGDDPEEDTVESVVSPPELPPRNIPLTASSCEAKEVPFSNENPRATETSRPSLSETLFQRLQSMDTSGLPEEHLKAIQDYLSTQLAQDSEFVKTGSSSLPHLKKLTTLLCKELYGEVIRTLPSLESLQRLFDQQLSPGLRPRPQVPGEANPINMVSKLSQLTSLLSSIEDKVKALLHEGPESPHRPSLIPPVTFEVKAESLGIPQKMQLKVDVESGKLIIKKSKDGSEDKFYSHKKILQLIKSQKFLNKLVILVETEKEKILRKEYVFADSKKREGFCQLLQQMKNKHSEQPEPDMITIFIGTWNMGNAPPPKKITSWFLSKGQGKTRDDSADYIPHDIYVIGTQEDPLSEKEWLEILKHSLQEITSVTFKTVAIHTLWNIRIVVLAKPEHENRISHICTDNVKTGIANTLGNKGAVGVSFMFNGTSLGFVNSHLTSGSEKKLRRNQNYMNILRFLALGDKKLSPFNITHRFTHLFWFGDLNYRVDLPTWEAETIIQKIKQQQYADLLSHDQLLTERREQKVFLHFEEEEITFAPTYRFERLTRDKYAYTKQKATGMKYNLPSWCDRVLWKSYPLVHVVCQSYGSTSDIMTSDHSPVFATFEAGVTSQFVSKNGPGTVDSQGQIEFLRCYATLKTKSQTKFYLEFHSSCLESFVKSQEGENEEGSEGELVVKFGETLPKLKPIISDPEYLLDQHILISIKSSDSDESYGEGCIALRLEATETQLPIYTPLTHHGELTGHFQGEIKLQTSQGKTREKLYDFVKTERDESSGPKTLKSLTSHDPMKQWEVTSRAPPCSGSSITEIINPNYMGVGPFGPPMPLHVKQTLSPDQQPTAWSYDQPPKDSPLGPCRGESPPTPPGQPPISPKKFLPSTANRGLPPRTQESRPSDLGKNAGDTLPQEDLPLTKPEMFENPLYGSLSSFPKPAPRKDQESPKMPRKEPPPCPEPGILSPSIVLTKAQEADRGEGPGKQVPAPRLRSFTCSSSAEGRAAGGDKSQGKPKTPVSSQAPVPAKRPIKPSRSEINQQTPPTPTPRPPLPVKSPAVLHLQHSKGRDYRDNTELPHHGKHRPEEGPPGPLGRTAMQ
